In ChEMBL document CHEMBL3868595, “Plazomicin is effective in a non-human primate pneumonic plague model” (Bioorg Med Chem, 2016):
This continues a long series; more values of the same kind are listed elsewhere.

How the values were obtained:
Yersinia pestis [1] = assay: Antibacterial activity against Yersinia pestis Colorado 92 infected in African green monkey B6861 model assessed as bacterial burden in lung at 6.25 mg/kg, iv administered within 6 hrs post onset of sustained fever as 30 mins infusion for 5 days (reference value: 7.7 10^8CFU/g); type: functional, CO92
Yersinia pestis [2] = assay: Antibacterial activity against Yersinia pestis Colorado 92 infected in African green monkey B6415 model assessed as bacterial burden in kidney at 25 mg/kg, iv administered within 6 hrs post onset of sustained fever as 30 mins infusion for 5 days (reference value: 7.1 10^7CFU/g); type: functional, CO92
Yersinia pestis [3] = assay: Antibacterial activity against Yersinia pestis Colorado 92 infected in African green monkey B6960 model assessed as bacterial burden in lung at 6.25 mg/kg, iv administered within 6 hrs post onset of sustained fever as 30 mins infusion for 5 days (reference value: 7.7 10^8CFU/g); type: functional, CO92
Yersinia pestis [4] = assay: Antibacterial activity against Yersinia pestis Colorado 92 infected in African green monkey C2149 model assessed as bacterial burden in lung at 6.25 mg/kg, iv administered within 6 hrs post onset of sustained fever as 30 mins infusion for 5 days (reference value: 7.7 10^8CFU/g); type: functional, CO92
Yersinia pestis [5] = assay: Antibacterial activity against Yersinia pestis Colorado 92 infected in African green monkey B6873 model assessed as bacterial burden in liver at 12.5 mg/kg, iv administered within 6 hrs post onset of sustained fever as 30 mins infusion for 5 days (reference value: 5.2 10^8CFU/g); type: functional, organism-based; details: CO92
Yersinia pestis [6] = assay: Antibacterial activity against Yersinia pestis Colorado 92 infected in African green monkey B6783 model assessed as bacterial burden in heart at 12.5 mg/kg, iv administered within 6 hrs post onset of sustained fever as 30 mins infusion for 5 days (reference value: 2.6 10^7CFU/g); type: functional, CO92
Yersinia pestis [7] = assay: Antibacterial activity against Yersinia pestis Colorado 92 infected in African green monkey B6672 model assessed as bacterial burden in spleen at 12.5 mg/kg, iv administered within 6 hrs post onset of sustained fever as 30 mins infusion for 5 days (reference value: 1.6 10^9CFU/g); type: functional, CO92
Yersinia pestis [8] = assay: Antibacterial activity against Yersinia pestis Colorado 92 infected in African green monkey B6783 model assessed as bacterial burden in blood at 12.5 mg/kg, iv administered within 6 hrs post onset of sustained fever as 30 mins infusion for 5 days (reference value: 1.2 10^7CFU/ml); type: functional, CO92
Yersinia pestis [9] = assay: Antibacterial activity against Yersinia pestis Colorado 92 infected in African green monkey B6872 model assessed as bacterial burden in heart at 25 mg/kg, iv administered within 6 hrs post onset of sustained fever as 30 mins infusion for 5 days (reference value: 2.6 10^7CFU/g); type: functional, organism-based; details: CO92
Yersinia pestis [10] = assay: Antibacterial activity against Yersinia pestis Colorado 92 infected in African green monkey B6127 model assessed as bacterial burden in heart at 25 mg/kg, iv administered within 6 hrs post onset of sustained fever as 30 mins infusion for 10 days (reference value: 2.6 10^7CFU/g); type: functional, CO92
Yersinia pestis [11] = assay: (§1) Antibacterial activity against Yersinia pestis Colorado 92 infected in African green monkey B6415 model assessed as bacterial burden in tracheobronchial lymph nodes at 25 mg/kg, iv administered within 6 hrs post onset of sustained fever as 30 mins infusion for 5 days (reference value: 7.7 10^9CFU/g); type: functional, CO92, Lymph node
Yersinia pestis [12] = assay: Antibacterial activity against Yersinia pestis Colorado 92 infected in African green monkey B6415 model assessed as bacterial burden in heart at 25 mg/kg, iv administered within 6 hrs post onset of sustained fever as 30 mins infusion for 5 days (reference value: 2.6 10^7CFU/g); type: functional, CO92
Yersinia pestis [13] = assay: as §1, with “B6988” for “B6415”, “6.25” for “25”; type: functional, CO92, Lymph node
Yersinia pestis [14] = assay: Antibacterial activity against Yersinia pestis Colorado 92 infected in African green monkey B6469 model assessed as bacterial burden in spleen at 25 mg/kg, iv administered within 6 hrs post onset of sustained fever as 30 mins infusion for 5 days (reference value: 1.6 10^9CFU/g); type: functional, CO92
Yersinia pestis [15] = assay: Antibacterial activity against Yersinia pestis Colorado 92 infected in African green monkey C2083 model assessed as bacterial burden in lung at 12.5 mg/kg, iv administered within 6 hrs post onset of sustained fever as 30 mins infusion for 5 days (reference value: 7.7 10^8CFU/g); type: functional, CO92
Yersinia pestis [16] = assay: Antibacterial activity against Yersinia pestis Colorado 92 infected in African green monkey B6960 model assessed as bacterial burden in brain at 6.25 mg/kg, iv administered within 6 hrs post onset of sustained fever as 30 mins infusion for 5 days (reference value: 1.9 10^6CFU/g); type: functional, organism-based; details: CO92
Yersinia pestis [17] = assay: Antibacterial activity against Yersinia pestis Colorado 92 infected in African green monkey B6127 model assessed as bacterial burden in kidney at 25 mg/kg, iv administered within 6 hrs post onset of sustained fever as 30 mins infusion for 10 days (reference value: 7.1 10^7CFU/g); type: functional, organism-based; details: CO92
Yersinia pestis [18] = assay: Antibacterial activity against Yersinia pestis Colorado 92 infected in African green monkey B6672 model assessed as bacterial burden in brain at 12.5 mg/kg, iv administered within 6 hrs post onset of sustained fever as 30 mins infusion for 5 days (reference value: 1.9 10^6CFU/g); type: functional, CO92

Question: How did the Activity (Yersinia pestis [1]) turn out when CN[C@@H]1[C@@H](O)[C@@H](O[C@@H]2[C@@H](O)[C@H](O[C@H]3OC(CNCCO)=CC[C@H]3N)[C@@H](N)C[C@H]2NC(=O)[C@@H](O)CCN)OC[C@]1(C)O [PLAZOMICIN] was run?
Answer: 1.2 ×10⁸ CFU/g

Question: What about the Activity (Yersinia pestis [2]) of the same molecule?
Answer: 15 CFU/g

Question: What about the Activity (Yersinia pestis [3]) of the same molecule?
Answer: 3 ×10⁹ CFU/g

Question: And the Activity (Yersinia pestis [4])?
Answer: 1 ×10⁹ CFU/g

Question: What about the Activity (Yersinia pestis [5]) of the same molecule?
Answer: Below limit of detection

Question: What about the Activity (Yersinia pestis [6]) of the same molecule?
Answer: 80 CFU/g

Question: And the Activity (Yersinia pestis [7])?
Answer: 25 CFU/g

Question: And the Activity (Yersinia pestis [8])?
Answer: 27 CFU/ml

Question: And the Activity (Yersinia pestis [9])?
Answer: Below limit of detection

Question: What about the Activity (Yersinia pestis [10]) of the same molecule?
Answer: 94 CFU/g

Question: What about the Activity (Yersinia pestis [11]) of the same molecule?
Answer: 7.1 ×10⁷ CFU/g

Question: And the Activity (Yersinia pestis [12])?
Answer: 62 CFU/g

Question: What about the Activity (Yersinia pestis [13]) of the same molecule?
Answer: 6.6 ×10⁶ CFU/g

Question: What about the Activity (Yersinia pestis [14]) of the same molecule?
Answer: 46 CFU/g

Question: And the Activity (Yersinia pestis [15])?
Answer: 3.7 ×10⁶ CFU/g

Question: What about the Activity (Yersinia pestis [16]) of the same molecule?
Answer: Below limit of detection

Question: What about the Activity (Yersinia pestis [17]) of the same molecule?
Answer: Below limit of detection

Question: What about the Activity (Yersinia pestis [18]) of the same molecule?
Answer: 23 CFU/g
